Laboratory results taken from the supplement of paper PMC7661543.
± gives the standard deviation of the averaged measurements. The effect of the compound repeats well; differences between the knockouts mostly do not.

Test system: MDA-MB-231
Experiment: relative cell number vs DMSO control (72 h) (% of DMSO); higher = less growth inhibition (more cells)
Protocol: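 QMAP-Seq: a pool of 5 breast cancer cell lines (ZR-75-1, SKBR3, HCC-38, MDA-MB-231, BT-20), each carrying 12 doxycycline-inducible Cas9 sgRNA perturbations (11 knockouts plus non-targeting sgNT), was treated with compounds for 72 h at four 10-fold doses (10 nM-10 uM or 1 nM-1 uM range). Barcodes were amplified and sequenced, and cell number was interpolated from 293T spike-in standard curves. The result is expressed as % of the median of DMSO wells. Two biological replicates.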

[1] = sgRNA knockout: sgATF3, 1000 nM
[2] = sgRNA knockout: sgATF3, 10000 nM
[3] = sgRNA knockout: sgATF4, 1000 nM
[4] = sgRNA knockout: sgATF4, 10000 nM
[5] = sgRNA knockout: sgATF6, 1000 nM
[6] = sgRNA knockout: sgATF6, 10000 nM
[7] = sgRNA knockout: sgATG7, 1000 nM
[8] = sgRNA knockout: sgATG7, 10000 nM
[9] = sgRNA knockout: sgERN1, 1000 nM
[10] = sgRNA knockout: sgERN1, 10000 nM
[11] = sgRNA knockout: sgHSF1, 1000 nM
[12] = sgRNA knockout: sgHSF1, 10000 nM
[13] = sgRNA knockout: sgHSF2, 1000 nM
[14] = sgRNA knockout: sgHSF2, 10000 nM
[15] = sgRNA knockout: sgKEAP1, 100 nM
[16] = sgRNA knockout: sgKEAP1, 1000 nM
[17] = sgRNA knockout: sgKEAP1, 10000 nM
[18] = sgRNA knockout: sgNFE2L2, 10 nM
[19] = sgRNA knockout: sgNFE2L2, 100 nM
[20] = sgRNA knockout: sgNFE2L2, 1000 nM
[21] = sgRNA knockout: sgNFE2L2, 10000 nM
[22] = sgRNA knockout: sgSLC35F2, 10 nM
[23] = sgRNA knockout: sgSLC35F2, 100 nM
[24] = sgRNA knockout: sgSLC35F2, 1000 nM
[25] = sgRNA knockout: sgSLC35F2, 10000 nM
[26] = sgRNA knockout: sgXBP1, 1000 nM
[27] = sgRNA knockout: sgXBP1, 10000 nM

CCOc1ccccc1-n1c(C(C)N2CCN(C(=O)COc3ccc(Cl)cc3)CC2)nc2ccccc2c1=O (configuration not stated) [Erastin] showed a relative cell number (sgRNA knockout: sgATF3, 10 nM) of 116 ± 30, a relative cell number (sgRNA knockout: sgATF3, 100 nM) of 89.3 ± 1.6 and a relative cell number [1] of 96.6 ± 15. The relative cell number [2] was 16 ± 5.6, the relative cell number (sgRNA knockout: sgATF4, 10 nM) was 105 ± 21 and the relative cell number (sgRNA knockout: sgATF4, 100 nM) was 91.6 ± 5.6. The relative cell number [3] was 105 ± 48, the relative cell number [4] was 15.6 ± 0.62 and the relative cell number (sgRNA knockout: sgATF6, 10 nM) was 85.5 ± 39. For the same compound, the relative cell number (sgRNA knockout: sgATF6, 100 nM) was 105 ± 43, the relative cell number [5] was 95.9 ± 11 and the relative cell number [6] was 12.6 ± 1.7. For the same compound, the relative cell number (sgRNA knockout: sgATG7, 10 nM) was 79.7 ± 9.2, the relative cell number (sgRNA knockout: sgATG7, 100 nM) was 74.6 ± 8.4 and the relative cell number [7] was 88.7 ± 14. It also gave a relative cell number [8] of 12.2 ± 1.5, a relative cell number (sgRNA knockout: sgERN1, 10 nM) of 94.8 ± 14 and a relative cell number (sgRNA knockout: sgERN1, 100 nM) of 101 ± 5.6. For the same compound, the relative cell number [9] was 85.3 ± 1.2, the relative cell number [10] was 21.7 ± 4.7 and the relative cell number (sgRNA knockout: sgHSF1, 10 nM) was 86.7 ± 4.9. It also gave a relative cell number (sgRNA knockout: sgHSF1, 100 nM) of 83.5 ± 2.4, a relative cell number [11] of 90.5 ± 14 and a relative cell number [12] of 9.86 ± 1.4. For the same compound, the relative cell number (sgRNA knockout: sgHSF2, 10 nM) was 93.5 ± 26, the relative cell number (sgRNA knockout: sgHSF2, 100 nM) was 94.3 ± 4.8 and the relative cell number [13] was 91.9 ± 2.8. The relative cell number [14] was 20.1 ± 2.3, the relative cell number (sgRNA knockout: sgKEAP1, 10 nM) was 117 ± 7.6 and the relative cell number [15] was 91.9 ± 7.5. For the same compound, the relative cell number [16] was 75.3 ± 10, the relative cell number [17] was 24.1 ± 1.8 and the relative cell number [18] was 84.1 ± 16. It also gave a relative cell number [19] of 97.8 ± 26, a relative cell number [20] of 81.7 ± 3.1 and a relative cell number [21] of 17.3 ± 3.2. The relative cell number [22] was 100 ± 44, the relative cell number [23] was 76.7 ± 3.6 and the relative cell number [24] was 93.2 ± 3.1. It also gave a relative cell number [25] of 14.69 ± 0.039, a relative cell number (sgRNA knockout: sgXBP1, 10 nM) of 96.3 ± 17 and a relative cell number (sgRNA knockout: sgXBP1, 100 nM) of 82.7 ± 2.4. For the same compound, the relative cell number [26] was 75.1 ± 27 and the relative cell number [27] was 14.4 ± 0.74.
C=C1C[C@@H]2[C@H](CC[C@]3(C)C(=O)CC[C@@H]23)[C@@]2(C)C=CC(=O)C=C12 [Exemestane] showed a relative cell number (sgRNA knockout: sgATF3, 10 nM) of 104 ± 27, a relative cell number (sgRNA knockout: sgATF3, 100 nM) of 95.4 ± 8.2 and a relative cell number [1] of 89.4 ± 1.1. It also gave a relative cell number [2] of 83.2 ± 3, a relative cell number (sgRNA knockout: sgATF4, 10 nM) of 121 ± 3.8 and a relative cell number (sgRNA knockout: sgATF4, 100 nM) of 96.9 ± 33. For the same compound, the relative cell number [3] was 116 ± 3.1, the relative cell number [4] was 93.1 ± 50 and the relative cell number (sgRNA knockout: sgATF6, 10 nM) was 95.9 ± 13. It also gave a relative cell number (sgRNA knockout: sgATF6, 100 nM) of 99.61 ± 0.38, a relative cell number [5] of 83.128 ± 0.025 and a relative cell number [6] of 108 ± 2.2. It also gave a relative cell number (sgRNA knockout: sgATG7, 10 nM) of 105 ± 14, a relative cell number (sgRNA knockout: sgATG7, 100 nM) of 81.5 ± 6.8 and a relative cell number [7] of 101 ± 11. The relative cell number [8] was 108 ± 14, the relative cell number (sgRNA knockout: sgERN1, 10 nM) was 107 ± 2.9 and the relative cell number (sgRNA knockout: sgERN1, 100 nM) was 90.6 ± 3.9. For the same compound, the relative cell number [9] was 99.3 ± 11, the relative cell number [10] was 84.7 ± 4.2 and the relative cell number (sgRNA knockout: sgHSF1, 10 nM) was 83.4 ± 1.6. For the same compound, the relative cell number (sgRNA knockout: sgHSF1, 100 nM) was 107 ± 11, the relative cell number [11] was 97.8 ± 34 and the relative cell number [12] was 105 ± 4.8. It also gave a relative cell number (sgRNA knockout: sgHSF2, 10 nM) of 98.9 ± 2.7, a relative cell number (sgRNA knockout: sgHSF2, 100 nM) of 72.7 ± 2.6 and a relative cell number [13] of 99.1 ± 12. The relative cell number [14] was 96 ± 14, the relative cell number (sgRNA knockout: sgKEAP1, 10 nM) was 96.1 ± 15 and the relative cell number [15] was 97.3 ± 40. It also gave a relative cell number [16] of 107 ± 20, a relative cell number [17] of 91.1 ± 34 and a relative cell number [18] of 93.7 ± 1.7. For the same compound, the relative cell number [19] was 79.3 ± 2.8, the relative cell number [20] was 98.1 ± 3 and the relative cell number [21] was 73.2 ± 18. For the same compound, the relative cell number [22] was 109 ± 9.8, the relative cell number [23] was 87.7 ± 3.3 and the relative cell number [24] was 122 ± 36. The relative cell number [25] was 98.6 ± 6.3, the relative cell number (sgRNA knockout: sgXBP1, 10 nM) was 123 ± 28 and the relative cell number (sgRNA knockout: sgXBP1, 100 nM) was 101 ± 29. It also gave a relative cell number [26] of 74.3 ± 6.1 and a relative cell number [27] of 93 ± 3.
CC(C)(C)OC(=O)CN(Cc1ccc(Cl)cc1)Cc1ccc([N+](=O)[O-])s1 [GSK4112] showed a relative cell number (sgRNA knockout: sgATF3, 10 nM) of 105.07 ± 0.017, a relative cell number (sgRNA knockout: sgATF3, 100 nM) of 92.7 ± 1.1 and a relative cell number [1] of 93.6 ± 9.9. The relative cell number [2] was 101 ± 10, the relative cell number (sgRNA knockout: sgATF4, 10 nM) was 97.9 ± 17 and the relative cell number (sgRNA knockout: sgATF4, 100 nM) was 113 ± 26. The relative cell number [3] was 112 ± 12, the relative cell number [4] was 110 ± 38 and the relative cell number (sgRNA knockout: sgATF6, 10 nM) was 84.9 ± 6.6. It also gave a relative cell number (sgRNA knockout: sgATF6, 100 nM) of 118 ± 9, a relative cell number [5] of 105 ± 13 and a relative cell number [6] of 123 ± 6. The relative cell number (sgRNA knockout: sgATG7, 10 nM) was 94.9 ± 15, the relative cell number (sgRNA knockout: sgATG7, 100 nM) was 106 ± 4.9 and the relative cell number [7] was 96.1 ± 2.5. The relative cell number [8] was 96.4 ± 4.5, the relative cell number (sgRNA knockout: sgERN1, 10 nM) was 89.21 ± 0.79 and the relative cell number (sgRNA knockout: sgERN1, 100 nM) was 81.7 ± 17. It also gave a relative cell number [9] of 102 ± 17, a relative cell number [10] of 109 ± 29 and a relative cell number (sgRNA knockout: sgHSF1, 10 nM) of 101 ± 1.4. For the same compound, the relative cell number (sgRNA knockout: sgHSF1, 100 nM) was 94.3 ± 17, the relative cell number [11] was 92 ± 15 and the relative cell number [12] was 108 ± 14. It also gave a relative cell number (sgRNA knockout: sgHSF2, 10 nM) of 87.8 ± 3.2, a relative cell number (sgRNA knockout: sgHSF2, 100 nM) of 98.2 ± 16 and a relative cell number [13] of 79.3 ± 16. The relative cell number [14] was 107 ± 1.3, the relative cell number (sgRNA knockout: sgKEAP1, 10 nM) was 93.8 ± 12 and the relative cell number [15] was 97 ± 3.8. For the same compound, the relative cell number [16] was 89.8 ± 12, the relative cell number [17] was 94.8 ± 9.4 and the relative cell number [18] was 105 ± 20. The relative cell number [19] was 106 ± 4.7, the relative cell number [20] was 95.6 ± 25 and the relative cell number [21] was 111 ± 7.2. For the same compound, the relative cell number [22] was 75.9 ± 9.6, the relative cell number [23] was 99.3 ± 3.5 and the relative cell number [24] was 89.2 ± 43. It also gave a relative cell number [25] of 96.3 ± 20, a relative cell number (sgRNA knockout: sgXBP1, 10 nM) of 101 ± 15 and a relative cell number (sgRNA knockout: sgXBP1, 100 nM) of 99.9 ± 7.8. It also gave a relative cell number [26] of 97.7 ± 18 and a relative cell number [27] of 118 ± 7.
